For the assay, the target named is T1, carbohydrate-responsive element-binding protein (ChREBP) (mouse (endogenous in MIN6)) (UniProt Q99MZ3).
T1 sequence: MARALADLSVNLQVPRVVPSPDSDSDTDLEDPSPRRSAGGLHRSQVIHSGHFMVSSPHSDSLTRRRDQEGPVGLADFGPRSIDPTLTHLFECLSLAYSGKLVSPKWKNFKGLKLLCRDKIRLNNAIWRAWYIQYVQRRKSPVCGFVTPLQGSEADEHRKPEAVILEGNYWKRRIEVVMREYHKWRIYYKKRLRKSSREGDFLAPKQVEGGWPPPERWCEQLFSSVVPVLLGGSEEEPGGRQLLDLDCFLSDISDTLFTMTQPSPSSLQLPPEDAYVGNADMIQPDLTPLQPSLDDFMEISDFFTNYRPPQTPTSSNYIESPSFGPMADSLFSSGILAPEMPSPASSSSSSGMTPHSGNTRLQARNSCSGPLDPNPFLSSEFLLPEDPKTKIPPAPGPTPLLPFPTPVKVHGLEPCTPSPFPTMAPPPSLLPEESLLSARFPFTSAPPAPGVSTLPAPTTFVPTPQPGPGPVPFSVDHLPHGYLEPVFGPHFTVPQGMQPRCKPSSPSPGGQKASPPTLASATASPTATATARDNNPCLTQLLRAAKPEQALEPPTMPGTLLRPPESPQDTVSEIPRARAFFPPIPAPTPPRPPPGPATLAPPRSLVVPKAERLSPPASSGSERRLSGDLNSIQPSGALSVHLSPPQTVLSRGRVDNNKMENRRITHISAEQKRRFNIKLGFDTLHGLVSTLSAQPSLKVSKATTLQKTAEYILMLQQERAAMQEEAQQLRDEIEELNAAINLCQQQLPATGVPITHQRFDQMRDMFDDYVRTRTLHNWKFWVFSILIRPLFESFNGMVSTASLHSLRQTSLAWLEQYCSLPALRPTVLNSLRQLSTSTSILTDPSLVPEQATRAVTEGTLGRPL
In words: co-IP; MIN6 cells lysed in RIPA buffer; ChREBP antibody or SCGN antibody added overnight at 4 °C, then protein A/G beads for 3-5 h; three washes with lysis buffer; western blot; cells untreated (normal) or treated with ox-LDL. For orientation: A western blot detects proteins with antibodies after separation by electrophoresis.

These are yes or no findings as the source states them, for the method shown. In cells and extracts the contact can be indirect. Some results given as binding are weak or reduced against the parent protein; the word gives no strength. Where a sequence is shown, tags or fusion partners need not be part of it.

B1: Secretagogin (SCGN) (protein, UniProt Q91WD9 1-276)
chain: MDNARRKTPARLDAACFWQIWQRFDKEEKGYIRETELDAFFDHLLAKSGTEDTLMEENVQKVKEQLMTSHNVSKEGRILMKELASMFLSEDENFLLFFRLETPLDNSVEFMQIWRKYDADSSGFISAAELCNFLRDLFLHHKKNISEAELEEYTSTMMKIFDKNKDGRLDLNDLARILALQENFLLQFKMDASSTEERKRDFEKIFAHYDVSKTGALEGPEVDGFVKDMMELVQPSISGVDLDKFREILLRHCDVNKDGKIQKSELALCLGLKINP
Turning to B1, the binding entry is “binds”.

(Values after paper PMC11283536.)
